Experimental data taken from CN114480298A.
Results are given in words; binding and its absence hold for the method and conditions named. Some results given as binding are weak or reduced against the parent protein; the word gives no strength. Tags and fused reporters may be left off the sequences shown.

What was measured:
[1] = biological target: T1, 人TIGIT重组蛋白 (真核293F细胞表达, 胞外区Met22-Pro141, C端6×His) (human) (UniProt Q495A1); experiment: Western blot, 0.2 μg antigen per lane, primary antibody 0.2 µg/mL
T1 sequence: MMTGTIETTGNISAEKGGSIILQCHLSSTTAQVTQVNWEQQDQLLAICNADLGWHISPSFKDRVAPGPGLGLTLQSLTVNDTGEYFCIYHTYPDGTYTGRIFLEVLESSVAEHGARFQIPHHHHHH

[2] = biological target: T1, 人TIGIT重组蛋白 (真核293F细胞表达, 胞外区Met22-Pro141, C端6×His) (human); experiment: indirect ELISA, plate coated with 1 µg/mL antigen, antibody 0.5 µg/mL

- binding [1]: binds
- binding [2]: binds
B1: 抗TIGIT单克隆抗体MJ12-30 (antibody, mouse IgG1, kappa, V domains shown)
VH: EVKLEQSGGVLVQPGGSRKLSCAASGFTFHSFGMHWVRQAPEKGLEWVAYISSGGSTIFYADTVKGRFTISRDNPKNTLFLQMTSLRSEDTAMYYCAGSDHGNLGYWGQGTTLTVSS
VL: DIVLTQSPLSLSVSLGDQASISCRSSQSILHSGGNTYLDWFLQRPGQSPKLLIYKVSNRISGVPDRFSGSGAGTDFTLKISRVEAEDLGVYYCFQGNHVPPTFGGGTKLEIKR
